This is an account of results in patent publication US20240360226A1 (AstraZeneca / MedImmune, published 2024).

Changes are numbered by the printed parent chain. No constants are given. Whether binding was seen depends on the method and setting.

The chains are these.
B1: B09-57 IgG (antibody, V domains shown)
VH: QVQLVQSGAEVKKPGASVKVSCKASGYTFTDYYIHWVRQATGQGLEWMGWMNPNSGNTGYAQKFQGRVTMTRDTSISTAYMELSSLRSEDTAVYYCARGQGYTHSWGQGTMVTVSS
VL: DIQMTQSPSTLSASVGDRVTITCRASEGIYHWLAWYQQKPGKAPKLLIYKASSLASGVPSRFSGSGSGTEFTLTISSLQPDDFATYYCQQYSNYPPTFGGGTKLEIK
notes: also called B09-GL; anti-c-Met antibody clone B09-GL
B2: RAA22 IgG (antibody, V domains shown)
VH: QVQLVQSGAEVKKPGSSVKVSCKASGGTFSDNDFSWVRQAPGQGLEWMGAIVAVFRTETYAQKFQDRVKITADISTRTTYMELSSLRSEDTAVYYCARRLMSAISGPGAPLLMWGQGTLVTVSS
VL: QSALTQPRSVSGSPGQSVTISCTGTSSDVGGYNYVSWYQQHPGKAPKLMIYDVSKRPSGVPDRFSGSKSGNTASLTISGLQAEDEADYYCSSYTSSDTLEIFGGGTKLTVL
notes: Bivalent parental IgG; Only the variable domains are tied to the parental IgG; also called anti-EGFR antibody clone RAA22
B3: QD6 IgG (antibody, V domains shown)
VH: B2 VH with F55V
VL: B2 VL with K55E, S91F
notes: Only variable domains are tied to the parental IgG; also called QD06; anti-EGFR antibody clone QD6

One assay addresses Semaphorin 3a. In words: ELISA, antigen coated at 1 ug/mL, anti-human Fab-HRP detection, A450.
In the case of B1, the binding entry was “no binding (tested: 10 ug/ml)”.
Same read-out and setting: under B2 stands “no binding (tested: 10 ug/ml)”.
With B3, the binding entry is listed as “no binding (tested: 10 ug/ml)”.

For the next assay, the target named is Ron (CD136). In words: ELISA, antigen coated at 1 ug/mL, anti-human Fab-HRP detection, A450 [CD136]. In general terms: An ELISA detects its analyte on a solid surface through an enzyme-linked reagent.
Regarding B1, the binding result is “no binding (tested: 10 ug/ml)”.
B2: the binding result is on record as “no binding (tested: 10 ug/ml)”.
Same read-out and setting: in the case of B3 it was “no binding (tested: 10 ug/ml)”.

The target of the next assay is Ron (CD136). In words: ELISA, coated antigen (FIG. 3B).
B1: the binding result is listed as “no binding (tested: 10 µg/mL)”.
The same measure, in the same setting: in the case of B2 it was “no binding (tested: 10 µg/mL)”; in that of B3, “no binding (tested: 10 µg/mL)”.

In a further assay the target is Semaphorin 3a. Description: ELISA, coated antigen (FIG. 3B).
Consider B1, for which the binding entry is listed as “no binding (tested: 10 µg/mL)”.
Same read-out and setting: in the case of B2 it was “no binding (tested: 10 µg/mL)”.
Still for that read-out and setting: in the case of B3 it was “no binding (tested: 10 µg/mL)”.
